80 compounds from PubChem BioAssay AID743402 (Broad Institute, 2014) can be followed below.

Hit rate of the full screen: of about 1,200 compounds, about 140 (12%) were called active.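 Rule for the calls: active = fitted curve falls past -35% activity change at a dose under twice the top valid dose, in every replicate test; inconclusive = replicate tests disagree on the call; inactive = the rest, including activity in the opposite direction.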 Most of the strongest results are missing from this list.

This assay is described as follows: CFTR-F508del correctors, dose response, FRT cells, YFP quenching, cherry-pick (AID 743402).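 Note: compounds act as correctors raising surface CFTR-F508del before acute activation.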 Conditions: FRT CFTR-F508del YFP iodide quenching, 24 h, channel opened with forskolin and a potentiator; at 26 µM (top of the series) unless noted.
As to `CSc1ccccc1NC(=O)COC(=O)CCC(=O)c1ccc(F)cc1`, the activity change, negative = more quenching (active) is inactive: 3.33%.

Take `COc1ccc(C2=NOC(C(=O)NCc3ccc(F)cc3)C2)cc1OC` (stereo not given): the activity change, negative = more quenching (active) was inactive: 12.9%.

Take `Cc1ccc(CNC(=O)c2ccc3c(=O)c(O)c(-c4ccc(C)cc4)[nH]c3c2)cc1`: the activity change, negative = more quenching (active) was inactive: 3.54%.

Regarding `O=C(c1cccc(F)c1)N1CC[C@@H]2[C@H](CO)Nc3ccc(-c4ccccc4F)cc3[C@@H]21`, the activity change, negative = more quenching (active) is inactive: 3.12% [at 23.5 µM].

In the case of `Cc1cccc(N2CCN(C(=O)c3c(-c4ccccc4Cl)noc3C)CC2)c1C`, the activity change, negative = more quenching (active) is inactive: 9.13%.

Take `COc1cc2c(-c3ccccc3)c(C)oc2cc1/C=N/NC(N)=S`: the activity change, negative = more quenching (active) is inactive: -6.67%.

`Cc1cc2c(cc1S(=O)(=O)Nc1ccc(F)cc1)n(C)c(=O)c(=O)n2C`: the activity change, negative = more quenching (active) was inactive: -0.721%.

With `COc1ccc2[nH]c(C(=O)N/N=C/c3ccc(O)cc3O)cc2c1`, the activity change, negative = more quenching (active) was inactive: 6.25%.

Regarding `Nc1ccn([C@@H]2O[C@H](C(=O)NCC(F)(F)F)[C@@H](O)[C@H]2O)c(=O)n1`, the activity change, negative = more quenching (active) is inactive: 3.33%.

Turning to `O=C(CCC(=O)N1CCOc2ccc(Cl)cc21)N1CCN(c2ccccn2)CC1`, the activity change, negative = more quenching (active) was inactive: 12.5%.

`COc1cccc(N2CCN(C(=O)c3ccc(CS(=O)c4ccc(Cl)cc4)o3)CC2)c1` (stereo not given): the activity change, negative = more quenching (active) was inactive: 0%.

For `Cn1nc(C(=O)NNC(=O)CCOc2ccc(C(C)(C)C)cc2)c2ccccc2c1=O`, the activity change, negative = more quenching (active) was inactive: 0%.

On to `CCC1=Nc2cc(C(=O)NCc3cccnc3)ccc2Sc2ccc(C)cc21`, for which the activity change, negative = more quenching (active) is inactive: -14.7%.

Consider `CC(=O)O[C@H]1C(=O)[C@@]2(C)[C@H]([C@H](OC(=O)c3ccccc3)[C@]3(O)C[C@H](OC(=O)[C@H](O)C(NC(=O)c4ccccc4)c4ccccc4)C(C)=C1C3(C)C)[C@]1(OC(C)=O)CO[C@@H]1C[C@@H]2O` (stereo not given in full), for which the activity change, negative = more quenching (active) was inactive: 12.9%.

As to `Cc1noc(C)c1COc1ccc(C(=O)N2CCN(S(=O)(=O)c3ccc(F)cc3)CC2)cc1`, the activity change, negative = more quenching (active) is inactive: 11.1%.

Take `CCOc1ccc(C(=O)O/N=C(\N)c2ccccn2)cc1`: the activity change, negative = more quenching (active) is inactive: 18.4%.

As for `COC(=O)c1cc(C(=O)N2CCN(c3cccc(Cl)c3)CC2)cc([N+](=O)[O-])c1`, the activity change, negative = more quenching (active) was inactive: -3.33%.

For `COc1ccc(C2=Nn3c(nnc3-c3ccccc3F)SC2)cc1OC1CCCC1`, the activity change, negative = more quenching (active) is inactive: -4.84%.

`O=C1NC(Cc2ccc(O)cc2)c2nc3ccc(Br)cc3c(=O)n2-c2cc3ccccc3cc21` (stereo not given): the activity change, negative = more quenching (active) was inactive: 3.33%.

With `O=C1c2ccc3c4c(ccc(c24)C(=O)N1CCCCO)C(=O)N(CCCCO)C3=O`, the activity change, negative = more quenching (active) was inactive: -31.2%.

On to `COc1ccc(S(=O)(=O)Nc2ccc3c(c2)C(=O)N([C@H](C)CO)C[C@@H](C)[C@@H](CN(C)Cc2ccc(C(F)(F)F)cc2)O3)cc1`, for which the activity change, negative = more quenching (active) is inactive: 3.33%.

Consider `COc1ccccc1OCCNC(=O)CCNC(=O)c1ccccc1OC`, for which the activity change, negative = more quenching (active) was inactive: -3.33%.

Take `COc1cc(Nc2c3c(nc4ccccc24)CCC3)cc(OC)c1OC`: the activity change, negative = more quenching (active) is inactive: -16%.

For `O=C(N/N=C/c1c(O)ccc2ccccc12)c1ccc(Br)o1`, the activity change, negative = more quenching (active) was inactive: -7.69%.

Regarding `O=S(=O)(c1ccc(Br)cc1)N1CCCc2ccccc21`, the activity change, negative = more quenching (active) is inactive: 12.9%.

In the case of `O=C(CN(Cc1ccco1)Cc1ccco1)Nc1cc(S(=O)(=O)N2CCCCC2)ccc1Cl`, the activity change, negative = more quenching (active) is inactive: 10%.

In the case of `COc1ccc(-c2c(C)cc3oc(=O)cc(-c4ccccc4)c3c2C)cc1OC`, the activity change, negative = more quenching (active) was inactive: -16%.

Turning to `Cc1nc(NCc2cccnc2)c2c3c(sc2n1)CCCC3`, the activity change, negative = more quenching (active) was inactive: 3.33%.

As to `COc1ccc(NC(=O)c2ccc(OCC3CCCO3)cc2)cc1OC` (stereo not given), the activity change, negative = more quenching (active) was inactive: 8.99%.

With `CCOc1ccc(N(CC)C(=O)COc2cc(=O)n(C)c3ccccc23)cc1`, the activity change, negative = more quenching (active) was inactive: 7.14%.

In the case of `O=C(NC1CCN(Cc2ccccc2)CC1)c1cc(S(=O)(=O)N2CCOCC2)ccc1Cl`, the activity change, negative = more quenching (active) was inactive: 10%.

Turning to `O=C(N/N=C/c1cc(Br)cc(Cl)c1O)c1ccc2c(c1)OCO2`, the activity change, negative = more quenching (active) was inactive: 11.5%.

Regarding `O=C(NCc1cccnc1)c1cc(C2CCCCN2C(=O)CCCc2ccccc2)on1` (stereo not given), the activity change, negative = more quenching (active) was inactive: 13.3%.

Take `CCC(=O)N1CC2(CCN(Cc3ccc(Cl)cc3)CC2)c2c(n(C)c3cc(OC)ccc23)[C@H]1CO`: the activity change, negative = more quenching (active) is inactive: -6.91%.

With `CCOC(=O)c1ccc(-c2c(-c3cc(OC)c(OC)c(OC)c3)noc2C)cc1F`, the activity change, negative = more quenching (active) was inactive: 3.33%.

`CCCN1[C@H](C(=O)N2CCOCC2)[C@@H](CO)[C@@H]2Cn3c(ccc(/C=C/c4ccccc4)c3=O)[C@@H]21`: the activity change, negative = more quenching (active) was inactive: 10.2%.

For the compound `COc1ccc(S(=O)(=O)N2CCN(CCOc3ccccc3Cl)CC2)cc1OC`, the activity change, negative = more quenching (active) is inactive: 10%.

On to `CCOc1ccc(NC(=O)c2ccc(NC(=O)CN3C(=O)C(=O)N(CC(C)C)C3=O)cc2)cc1`, for which the activity change, negative = more quenching (active) is inactive: 10.8%.

Turning to `CC(=O)c1ccc(Nc2cc(C)nc3c(C)cc(C)cc23)cc1`, the activity change, negative = more quenching (active) was inactive: 12.9% [at 8 µM].

As for `C[C@@H]1CN([C@@H](C)CO)C(=O)Cc2cc(NC(=O)Nc3ccc(C(F)(F)F)cc3)ccc2O[C@H]1CN(C)C(=O)Nc1ccccc1`, the activity change, negative = more quenching (active) was inactive: 7.14%.

For the compound `CCn1c(SCC(=O)N/N=C/c2ccc(O)c(OC)c2)nc2ccccc21`, the activity change, negative = more quenching (active) is inactive: 11.2%.

In the case of `CCOC(=O)c1sc(Nc2nc(C)cc(C)n2)nc1C`, the activity change, negative = more quenching (active) is inactive: -11.1%.

As to `COC(=O)C1=CN(c2ccc3c(c2)OCO3)C(N)=C(C#N)C1c1cccc(F)c1` (stereo not given), the activity change, negative = more quenching (active) is inactive: -3.12%.

`Cc1ccc(C(=O)NC(=S)NNC(=O)c2ccccc2O)cc1`: the activity change, negative = more quenching (active) was inactive: -6.46%.

For `CCSc1nnc(N2C(=O)C(O)=C(C(=O)c3ccco3)C2c2cccc(OC)c2)s1` (stereo not given), the activity change, negative = more quenching (active) was inactive: -9.58%.

With `Cc1ccc2cc(CN(CC3CCCO3)C(=S)Nc3ccccc3)c(=O)[nH]c2c1C` (stereo not given), the activity change, negative = more quenching (active) is inactive: 0%.

`COc1ccc(C)cc1Nc1c2c(nc3ccccc13)CCC2`: the activity change, negative = more quenching (active) was inactive: 29.2%.

Take `C[C@H]1CN([C@@H](C)CO)S(=O)(=O)c2ccc(-c3ccc(C#N)cc3)cc2O[C@@H]1CN(C)Cc1ccccn1`: the activity change, negative = more quenching (active) was inactive: -1.72%.

In the case of `COc1cccc(C(=O)c2c[nH]c(C(=O)NCCCN3CCOCC3)c2)c1`, the activity change, negative = more quenching (active) is inactive: 12.9%.

Regarding `Cc1ccc(S(=O)(=O)N(Cc2cc3ccccc3[nH]c2=O)c2cccc(C)c2)cc1`, the activity change, negative = more quenching (active) was inactive: 12.9%.

Regarding `C[C@H](CO)N1C[C@H](C)[C@H](CN(C)C(=O)NC2CCCCC2)Oc2ncc(-c3cc4ccccc4o3)cc2C1=O`, the activity change, negative = more quenching (active) was inactive: 6.46%.

For the compound `COc1ccc(NC(=O)c2cc(S(=O)(=O)N3CCOCC3)ccc2C)cc1S(=O)(=O)N1CCOCC1`, the activity change, negative = more quenching (active) was inactive: -6.25%.

Take `COc1cccc(-c2cc3nc(-c4ccccc4)cc(=O)n3[nH]2)c1`: the activity change, negative = more quenching (active) is inactive: -20%.

With `COc1ccc(C(=O)c2cc(OC)c(OC)c(OC)c2)cc1OC`, the activity change, negative = more quenching (active) was inactive: -20.9%.

In the case of `Cc1ccc(S(=O)(=O)Nc2ccc3c(c2)C(=O)N([C@@H](C)CO)C[C@H](C)[C@H](CN(C)S(=O)(=O)c2ccc(Cl)cc2)OCCCC[C@@H](C)O3)cc1`, the activity change, negative = more quenching (active) was inactive: 1.72%.

Consider `CC(OC(=O)c1ccc(Cl)nc1)C(=O)NC(C)(C)C` (stereo not given), for which the activity change, negative = more quenching (active) is inactive: 3.12%.

Regarding `O=C1NCCc2c1[nH]c1ccc([N+](=O)[O-])cc21`, the activity change, negative = more quenching (active) was inactive: 0%.

Take `CCCNC(=O)N1[C@H](CO)[C@@H](c2ccc(C3=CCCC3)cc2)[C@@H]1CN(C)C(C)=O`: the activity change, negative = more quenching (active) was inactive: 3.12%.

In the case of `Cc1sc(NC(=S)NC(=O)CCc2ccccc2)c(C(N)=O)c1C`, the activity change, negative = more quenching (active) is inactive: -6.46%.

Take `CCCCN1C(=O)CC(C(=O)OCC)=C1C`: the activity change, negative = more quenching (active) is inactive: -6.97%.

Regarding `C[C@H]1CCCCO[C@@H](CN(C)C(=O)Nc2ccc(C(F)(F)F)cc2)[C@@H](C)CN([C@@H](C)CO)C(=O)c2cc(NC(=O)Nc3ccc(F)cc3)ccc2O1`, the activity change, negative = more quenching (active) is inactive: 6.7%.

For the compound `O=Nc1ccc(O)c2ncccc12`, the activity change, negative = more quenching (active) is inactive: -6.25%.

For the compound `Cc1ccc(-c2csc3ncn(CC#N)c(=O)c23)cc1C`, the activity change, negative = more quenching (active) was inactive: 0%.

For `C=CCN1c2ccccc2[C@]23C[C@@H](C(=O)OC)N(C(=O)c4cccs4)C2=NC(C(=O)OC)=C(C(=O)OC)[C@H]13`, the activity change, negative = more quenching (active) was inactive: 6.67%.

For `COc1cc2c(c(Br)c1N)-c1cc(Br)c(N)cc1C2=O`, the activity change, negative = more quenching (active) was inactive: -13.3%.

As to `COc1ccc(CC(=O)NCc2ccc(-n3cccc3)cc2)cc1OC`, the activity change, negative = more quenching (active) is inactive: 0%.

Take `COc1ccc(-c2ccc3c(c2)[C@H]2[C@H](CCN2S(=O)(=O)c2ccc(OC)cc2)[C@H](CO)N3C)cc1`: the activity change, negative = more quenching (active) is inactive: -31.2% [at 8 µM].

As for `COC(=O)c1ccc(C(=O)NC2CCCc3c2cnn3-c2cc(F)cc(F)c2)nc1` (stereo not given), the activity change, negative = more quenching (active) was inactive: 6.67%.

For `Cc1cc(C(=O)CCC(=O)NC(C)c2ccc(S(N)(=O)=O)cc2)c(C)s1` (stereo not given), the activity change, negative = more quenching (active) was inactive: 0%.

Take `COc1cccc(-c2cccc(-c3nc(C(=O)NCC(F)(F)F)cc4c3[C@H](CCO)N([S@@](=O)C(C)(C)C)C4)c2)c1`: the activity change, negative = more quenching (active) was inactive: 13.8%.

Regarding `Cc1ccc(NC(=O)COC(=O)CCC2CCCC2)c(Br)c1`, the activity change, negative = more quenching (active) is inactive: 3.33%.

As for `CN1CCN(C(=O)c2ccc(CN(c3ccccc3)S(=O)(=O)c3ccccc3)cc2)CC1`, the activity change, negative = more quenching (active) was inactive: 13.3%.

On to `CN[C@H]1CCc2cc(OC)c(OC)c(OC)c2-c2ccc(N(C)CC(OC)OC)c(=O)cc21`, for which the activity change, negative = more quenching (active) is inactive: -1.61%.

As to `Cc1cccc(C(=O)N(Cc2ccco2)c2c(N)n(Cc3ccccc3)c(=O)[nH]c2=O)c1`, the activity change, negative = more quenching (active) is inactive: 4.84%.

Take `CC1=Nc2cc(C(=O)NCC3CCCO3)ccc2Sc2ccc(Br)cc21` (stereo not given): the activity change, negative = more quenching (active) is inactive: 19.4%.

`COc1cccc(-c2nnc(SCC(=O)NC3CCS(=O)(=O)C3)n2C)c1` (stereo not given): the activity change, negative = more quenching (active) was inactive: 10.7%.

With `CCN(CC(=O)Nc1cc(Cl)ccc1-n1cncn1)Cc1nc2ccccc2c(=O)[nH]1`, the activity change, negative = more quenching (active) is inactive: 6.67%.

Consider `Cc1ccc2c(c1)CCCN2C(=O)CCc1nc2ccccc2c(=O)[nH]1`, for which the activity change, negative = more quenching (active) is inactive: -6.67%.

Regarding `Cc1ccc(OCCC(=O)NNC(=O)c2ccc(Br)cc2)cc1`, the activity change, negative = more quenching (active) was inactive: 3.33%.

In the case of `CC(=O)N1Cc2cc(C(=O)NCC(F)(F)F)nc(-c3cccc(-c4cccnc4)c3)c2[C@@H]1CCO`, the activity change, negative = more quenching (active) is inactive: -6.46%.
